This is an account of results in article PMC4447390.

These are yes or no findings as the source states them, for the method shown. In cells and extracts the contact can be indirect. Binding can be weak; no strength is given. Tags and fused reporters may be left off the sequences shown.

Assay in all cases: co-IP
Experiment [1] deals with T1, C-terminally HA-tagged p88^pol (Red clover necrotic mosaic virus (Australian strain)) (UniProt P22956).
T1 sequence: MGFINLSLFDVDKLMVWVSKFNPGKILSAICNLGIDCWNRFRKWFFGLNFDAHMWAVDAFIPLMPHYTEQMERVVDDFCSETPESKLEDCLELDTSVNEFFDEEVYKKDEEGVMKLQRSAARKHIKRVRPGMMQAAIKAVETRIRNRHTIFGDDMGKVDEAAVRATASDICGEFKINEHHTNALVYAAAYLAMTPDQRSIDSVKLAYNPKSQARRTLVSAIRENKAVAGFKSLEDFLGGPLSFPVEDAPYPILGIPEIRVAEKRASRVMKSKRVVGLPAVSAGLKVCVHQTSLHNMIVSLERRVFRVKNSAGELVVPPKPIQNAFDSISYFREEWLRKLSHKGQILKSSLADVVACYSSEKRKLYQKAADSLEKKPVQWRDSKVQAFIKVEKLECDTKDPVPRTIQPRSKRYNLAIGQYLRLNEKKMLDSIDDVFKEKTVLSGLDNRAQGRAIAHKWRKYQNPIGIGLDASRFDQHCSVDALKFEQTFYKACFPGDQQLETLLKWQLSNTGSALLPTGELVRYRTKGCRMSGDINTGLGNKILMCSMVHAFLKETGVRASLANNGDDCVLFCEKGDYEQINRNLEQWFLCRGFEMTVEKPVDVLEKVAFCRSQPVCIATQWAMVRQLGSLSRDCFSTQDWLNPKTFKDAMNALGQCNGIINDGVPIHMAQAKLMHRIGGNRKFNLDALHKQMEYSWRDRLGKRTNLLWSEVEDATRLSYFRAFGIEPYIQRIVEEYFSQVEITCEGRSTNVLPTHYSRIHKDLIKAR

Experiment [2] concerns the target C-terminally FLAG-tagged NbPLDβ (N. benthamiana).
Experiment [3] has as its target green fluorescent protein (GFP)-fused NbPLDβ (N. benthamiana).
Experiment [4] deals with C-terminally FLAG-tagged NbPLDα (N. benthamiana).

With “C-terminally FLAG-tagged NbPLDα (from UniProt A0A0M3VGN3) (enzyme)”, in experiment [1], the binding result is on record as “binds”.

B1: Brome mosaic virus replication protein 2a^pol (enzyme, UniProt P03594 1-822)
chain: MSSKTWDDDFVRQVPSFQWIIDQSLEDEVEAASLQVQEPADGVAIDGSLASFKLAIAPLEIGGVFDPPFDRVRWGSICDTVQQMVQQFTDRPLIPQAEMARMLYLDIPGSFVLEDEIDDWYPEDTSDGYGVSFAADEDHASDLKLASDSSNCEIEEVRVTGDTPKELTLGDRYMGIDEEFQTTNTDYDITLQIMNPIEHRVSRVIDTHCHPDNPDISTGPIYMERVSLARTEATSHSILPTHAYFDDSYHQALVENGDYSMDFDRIRLKQSDVDWYRDPDKYFQPKMNIGSAQRRVGTQKEVLTALKKRNADVPEMGDAINMKDTAKAIAKRFRSTFLNVDGEDCLRASMDVMTKCLEYHKKWGKHMDLQGVNVAAETDLCRYQHMLKSDVKPVVTDTLHLERAVAATITFHSKGVTSNFSPFFTACFEKLSLALKSRFIVPIGKISSLELKNVRLNNRYFLEADLSKFDKSQGELHLEFQREILLALGFPAPLTNWWSDFHRDSYLSDPHAKVGMSVSFQRRTGDAFTYFGNTLVTMAMIAYASDLSDCDCAIFSGDDSLIISKVKPVLDTDMFTSLFNMEIKVMDPSVPYVCSKFLVETEMGNLVSVPDPLREIQRLAKRKILRDEQMLRAHFVSFCDRMKFINQLDEKMITTLCHFVYLKYGKEKPWIFEEVRAALAAFSLYSENFLRFSDCYCTEGIRVYQMSDPVCKFKRTTEERKTDGDWFHNWKNPKFPGVLDKVYRTIGIYSSDCSTKELPVKRIGRLHEALERESLKLANDRRTTQRLKKKVDDYATGRGGLTSVDALLVKSHCETFKPSDLR
Consider B1, for which the binding entry in experiment [2] was “binds”.

B2: six-His/FLAG-tagged p88^pol (enzyme, UniProt P22956 1-767)
chain: MGFINLSLFDVDKLMVWVSKFNPGKILSAICNLGIDCWNRFRKWFFGLNFDAHMWAVDAFIPLMPHYTEQMERVVDDFCSETPESKLEDCLELDTSVNEFFDEEVYKKDEEGVMKLQRSAARKHIKRVRPGMMQAAIKAVETRIRNRHTIFGDDMGKVDEAAVRATASDICGEFKINEHHTNALVYAAAYLAMTPDQRSIDSVKLAYNPKSQARRTLVSAIRENKAVAGFKSLEDFLGGPLSFPVEDAPYPILGIPEIRVAEKRASRVMKSKRVVGLPAVSAGLKVCVHQTSLHNMIVSLERRVFRVKNSAGELVVPPKPIQNAFDSISYFREEWLRKLSHKGQILKSSLADVVACYSSEKRKLYQKAADSLEKKPVQWRDSKVQAFIKVEKLECDTKDPVPRTIQPRSKRYNLAIGQYLRLNEKKMLDSIDDVFKEKTVLSGLDNRAQGRAIAHKWRKYQNPIGIGLDASRFDQHCSVDALKFEQTFYKACFPGDQQLETLLKWQLSNTGSALLPTGELVRYRTKGCRMSGDINTGLGNKILMCSMVHAFLKETGVRASLANNGDDCVLFCEKGDYEQINRNLEQWFLCRGFEMTVEKPVDVLEKVAFCRSQPVCIATQWAMVRQLGSLSRDCFSTQDWLNPKTFKDAMNALGQCNGIINDGVPIHMAQAKLMHRIGGNRKFNLDALHKQMEYSWRDRLGKRTNLLWSEVEDATRLSYFRAFGIEPYIQRIVEEYFSQVEITCEGRSTNVLPTHYSRIHKDLIKAR
For B2, the binding entry in experiment [3] is “binds”.

B3: C-terminally HA-tagged p88^pol (enzyme, UniProt P22956 1-767)
chain: MGFINLSLFDVDKLMVWVSKFNPGKILSAICNLGIDCWNRFRKWFFGLNFDAHMWAVDAFIPLMPHYTEQMERVVDDFCSETPESKLEDCLELDTSVNEFFDEEVYKKDEEGVMKLQRSAARKHIKRVRPGMMQAAIKAVETRIRNRHTIFGDDMGKVDEAAVRATASDICGEFKINEHHTNALVYAAAYLAMTPDQRSIDSVKLAYNPKSQARRTLVSAIRENKAVAGFKSLEDFLGGPLSFPVEDAPYPILGIPEIRVAEKRASRVMKSKRVVGLPAVSAGLKVCVHQTSLHNMIVSLERRVFRVKNSAGELVVPPKPIQNAFDSISYFREEWLRKLSHKGQILKSSLADVVACYSSEKRKLYQKAADSLEKKPVQWRDSKVQAFIKVEKLECDTKDPVPRTIQPRSKRYNLAIGQYLRLNEKKMLDSIDDVFKEKTVLSGLDNRAQGRAIAHKWRKYQNPIGIGLDASRFDQHCSVDALKFEQTFYKACFPGDQQLETLLKWQLSNTGSALLPTGELVRYRTKGCRMSGDINTGLGNKILMCSMVHAFLKETGVRASLANNGDDCVLFCEKGDYEQINRNLEQWFLCRGFEMTVEKPVDVLEKVAFCRSQPVCIATQWAMVRQLGSLSRDCFSTQDWLNPKTFKDAMNALGQCNGIINDGVPIHMAQAKLMHRIGGNRKFNLDALHKQMEYSWRDRLGKRTNLLWSEVEDATRLSYFRAFGIEPYIQRIVEEYFSQVEITCEGRSTNVLPTHYSRIHKDLIKAR
As for B3, the binding result in experiment [4] and in experiment [2] was “binds” each time.

B4: Brome mosaic virus replication protein 1a (protein, UniProt P03588 1-961)
chain: MSSSIDLLKLIAEKGADSQSAQDIVDNQVAQQLSAQIEYAKRSKKINVRNKLSIEEADAFRDRYGGAFDLNLTQQYHAPHSLAGALRVAEHYDCLDSFPPEDPVIDFGGSWWHHFSRRDKRVHSCCPVLGVRDAARHEERMCRMRKILQESDDFDEVPNFCLNRAQDCDVQADWAICIHGGYDMGFQGLCDAMHSHGVRVLRGTVMFDGAMLFDREGFLPLLKCHWQRDGSGADEVIKFDFENESTLSYIHGWQDLGSFFTESVHCIDGTTYLLEREMLKCNIMTYKIIATNLRCPRETLRHCVWFEDISKYVGVSIPEDWSLNRWKCVRVAKTTVREVEEIAFRCFKESKEWTENMKAVASILSAKSSTVIINGQAIMAGERLDIEDYHLVAFALTLNLYQKYEKLTALRDGMEWKGWCHHFKTRFWWGGDSSRAKVGWLRTLASRFPLLRLDSYADSFKFLTRLSNVEEFEQDSVPISRLRTFWTEEDLFDRLEHEVQTAKTKRSKKKAKVPPAAEIPQEEFHDAPESSSPESVSDDVKPVTDVVPDAEVSVEVPTDPRGISRHGAMKEFVRYCKRLHNNSESNLRHLWDISGGRGSEIANKSIFETYHRIDDMVNVHLANGNWLYPKKYDYTVGYNEHGLGPKHADETYIVDKTCACSNLRDIAEASAKVSVPTCDISMVDGVAGCGKTTAIKDAFRMGEDLIVTANRKSAEDVRMALFPDTYNSKVALDVVRTADSAIMHGVPSCHRLLVDEAGLLHYGQLLVVAALSKCSQVLAFGDTEQISFKSRDAGFKLLHGNLQYDRRDVVHKTYRCPQDVIAAVNLLKRKCGNRDTKYQSWTSESKVSRSLTKRRITSGLQVTIDPNRTYLTMTQADKAALQTRAKDFPVSKDWIDGHIKTVHEAQGISVDNVTLVRLKSTKCDLFKHEEYCLVALTRHKKSFEYCFNGELAGDLIFNCVK
In the case of B4, the binding entry in experiment [2] was “binds”.
